# Results as given in PubChem BioAssay AID1471 (National Center for Advancing Translational Sciences (NCATS), 2008).
# The campaign covered roughly 230,000 compounds. About 310 (0.13%) were called active. This list was built around the results that the source calls inconclusive (neither active nor inactive); the mix of calls is not that of the screen. The call rests on the fitted dose curve; in most records, active means well fitted activation curve with a large enough effect; inconclusive means small, poorly fitted or top-dose-only effect; inactive means no such curve, though single readings can be large or run the other way. A potency beside an inconclusive call is a rough fit, not a confirmed value.
# Experiment: qHTS Multiplex Assay to Identify Dual Action Probes in a Cell Model of Huntington: Cytoprotection (ATP); further: nearly all actives have a fitted effect of over 45% in size;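 on cytoprotection (ATP increase): toxic huntingtin expression switched on by the ecdysone agonist tebufenozide; % of control where 0% means no effect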
# Conditions: PC12 HTT-Q103 induced, ATP luminescence, 40 h; cytoprotection (ATP increase): at 56.4 µM (top of the series) unless noted
# Procedure, shortened: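 Huntington model: PC12 line, ecdysone-inducible HTTQ103 exon1–GFP, tebufenozide 100 nM. Test articles in a dose series. Endpoint luminescence from cellular ATP.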
# Potency means the concentration at half of the fitted maximal effect.
Structure (SMILES),cytoprotection (ATP increase),Potency
CC(C)CC1CC(C)(c2csc(NNC(=O)c3ccccc3)n2)OC1=O (centres undefined),inactive: -18.2%,–
COc1ccccc1CC(=N)N1C[C@@H]2C(=O)CCC(c3ccccc3)(c3ccccc3)[C@@H]2C1,–,"inconclusive: 1000 nM [activator, single point]"
CCC1=NN(C(=O)Cc2ccccc2)C(O)(c2ccncc2)C1 (centres undefined),–,"inconclusive: 501 nM [activator, full curve, poor fit]"
COc1ccc(C2COc3c(ccc(O)c3OC)C2)c(OC)c1O (centres undefined),–,"inconclusive: 25100 nM [activator, single point]"
Cc1nc2ccccc2cc1OCc1ccc(F)cc1,–,"inconclusive: 3160 nM [activator, single point]"
CC(=O)c1ccc(NC(=O)Nc2ccc([N+](=O)[O-])cc2C)cc1,–,"inconclusive: 3980 nM [activator, single point]"
Cc1c(CCO)sc[n+]1CC(=O)OC12CC3CC(CC(C3)C1)C2,–,"inconclusive: 1260 nM [activator, single point]"
CC(C)C(=O)NC(=S)Nc1ccccc1C(F)(F)F,inactive: 6.22%,–
O=C1CCC(c2ccccc2)(C2CCN(Cc3ccccc3)CC2)C(=O)N1 (centres undefined),–,"inconclusive: 708 nM [activator, partial curve, poor fit]"
Cc1ccc(C)c2[nH]c(=O)c(CCNC(=O)C(C)C)cc12,inactive: 23.6% [at 10 µM],–
O=C(OCn1ncc(Cl)c(Cl)c1=O)c1ccc(F)cc1,inactive: -91%,–
C[C@H]1Cc2c(COc3ccccc3)nc3c(c2CO1)CN(C(=O)C1CC1)CC3,–,"inconclusive: 0.9 nM [activator, partial curve, poor fit]"
COc1cc(NC(=S)Nc2cccc(C)n2)cc(OC)c1OC,inactive: -10%,–
COc1c(O)c2c(=O)cc(OC)c3c4c(OC)cc(=O)c5c(O)c(OC)c(C[C@@H](C)OC(=O)c6ccccc6)c(c(c1C[C@@H](C)OC(=O)Oc1ccc(O)cc1)c23)c54,inactive: -35.6%,–
O=c1c2c3c(sc2n(CCN2CCCCC2)c(=O)n1Cc1ccco1)CCCCC3,inactive: -7.49%,–
O=C(NCCCc1nc2ccccc2[nH]1)c1ccc(F)cc1,–,active: 355 nM
COc1cc(OC)c(N(C)C(=O)CCNC(=O)Cn2cnc3ccccc3c2=O)cc1Cl,inactive: 25.9%,–
CCC1OCCC=CC1C (centres undefined),–,"inconclusive: 708 nM [activator, single point]"
CN(Cc1c(C(=O)N2CCc3ccccc3C2)nc2ccc(Cl)cn12)C(C1CC1)C1CC1,–,"inconclusive: 1260 nM [activator, single point]"
CC12CN3CC(C)(CN(C1)C3c1ccccc1F)C2 (centres undefined),inactive: 30.6% [at 10 µM],–
CC(C)(N=NC(C)(C)C(=N)N)C(=N)N,–,"inconclusive: 25100 nM [activator, single point]"
O=S(=O)(c1ccccc1)N1CCC2(CC1)CN(c1ccccc1)C2,–,"inconclusive: 3160 nM [activator, single point]"
CCN1C(=C(C#N)C#N)C=Cc2ccccc21,inactive: -9.61%,–

Structure (SMILES),cytoprotection (ATP increase),Potency
CC(=O)N1CCC2(CC1)CCN(C(=O)Nc1cccc(C#N)c1)CC2,–,"inconclusive: 5010 nM [activator, partial curve, poor fit]"
CN(C)C(=O)/C(=C\c1ccncc1)NC(=O)c1ccccc1,–,"inconclusive: 1000 nM [activator, single point]"
COc1ccccc1C1CC(=O)Oc2cc(C)c(Cl)c(C)c21 (centres undefined),–,"inconclusive: 20000 nM [activator, single point]"
Cc1ccc(NC(=O)COC(=O)CCC(=O)c2ccc(Cl)cc2)cc1S(=O)(=O)N(C)C,inactive: 1.1% [at 10 µM],–
CCNC(=O)CN1C(=O)NC(CCc2ccccc2)C1=O (centres undefined),inactive: -15.2%,–
COCCn1c(=O)c(C)nc2cnc(N3CCN(C)CC3)nc21,–,"inconclusive: 2510 nM [activator, single point]"
COc1cc(/C=C2/SC(=S)N(CC(=O)Nc3cccnc3)C2=O)cc(OC)c1OC,–,"inconclusive: 3160 nM [activator, single point]"
CCCCC[C@H](O)/C=C/C1=C(C/C=C\CCCC(=O)O)C(=O)CC1,–,"inconclusive: 3550 nM [activator, single point]"
O=C1N/C(=N\N=C\c2cccs2)SC1Cc1cccc(Cl)c1Cl (centres undefined),–,"inconclusive: 1260 nM [activator, single point]"
CCC[C@@H]1C[C@@H](C(=O)NC(C(C)Cl)[C@H]2O[C@H](SC)[C@H](O)[C@@H](O)[C@H]2O)N(C)C1 (some centres undefined),–,"inconclusive: 562 nM [activator, full curve]"
C(=C1/CCCC2=C1Nc1ncnn1C2c1ccccc1)/c1ccccc1 (centres undefined),–,"inconclusive: 5620 nM [activator, single point]"
N#CCCCS(=O)(=O)c1nc2ccccc2s1,–,"inconclusive: 35500 nM [activator, single point]"
Cc1ccc(Cl)cc1N1CCN(S(=O)(=O)c2ccc3c(c2)oc(=O)n3C)CC1,inactive: 5.4%,–
CCOc1ccccc1C(=O)OCC(=O)Nc1ccc(OC(F)F)cc1,inactive: -49.5%,–
COC(=O)c1cc(C(=O)Nc2cc(C)ccn2)cc([N+](=O)[O-])c1,–,"inconclusive: 794 nM [activator, full curve]"
Cc1ccc(C)c(Cn2c(C(=O)OC(C)C)cc3c2ccn3C)c1,–,"inconclusive: 5620 nM [activator, single point]"
Cc1cc(C)c2cc(CN(Cc3nnnn3C3CCCCC3)CC3CCCO3)c(=O)[nH]c2c1 (centres undefined),inactive: -2.89%,–
CC(C)[C@H](NC(N)=O)C(=O)Nc1ccc(Oc2ccccc2)cc1,–,"inconclusive: 5620 nM [activator, single point]"
O=C(Nc1ccc(F)cc1)Nc1cc(OCC(F)(F)F)cc(OCC(F)(F)F)c1,inactive: -67.2% [at 10 µM],–
CCOc1ccc2nc(CN3CCN(Cc4ccsc4)C(CCO)C3)ccc2c1 (centres undefined),–,"inconclusive: 5010 nM [activator, single point]"
N#Cc1ccsc1NC(=O)c1cccc([N+](=O)[O-])c1,–,"inconclusive: 5620 nM [activator, partial curve]"
O=C(c1ccc(=O)[nH]c1)N(Cc1cccs1)C1(C(=O)NC2CCCC2)CCCCC1,–,"inconclusive: 562 nM [activator, single point]"
CCN1C(=O)[C@H]2[C@H]3[C@H](O)[C@H](O)C/C(=N/OC/C=C(\C)CCC=C(C)C)[C@H]3CC[C@@H]2C1=O,–,"inconclusive: 3550 nM [activator, partial curve, poor fit]"

Structure (SMILES),cytoprotection (ATP increase),Potency
O=C(Nc1nc2c(F)cc(F)cc2s1)C1CC(=O)N(Cc2ccco2)C1 (centres undefined),inactive: -10.3% [at 10 µM],–
CCn1c(SCC(=O)Nc2ccc(C(C)=O)cc2)nc2nc3c(cc2c1=O)CCCC3,inactive: 31.9% [at 10 µM],–
NC1(C(=O)O)CCC1,–,"inconclusive: 112 nM [activator, full curve]"
COc1ccccc1CNc1ncncc1-c1ccccc1CN(C)C,–,"inconclusive: 15800 nM [activator, partial curve]"
c1cncc(-c2nn3cnnc3s2)c1,inactive: 2.03% [at 0.074 µM],–
CCCCNc1cc(F)nc(N)n1,–,"inconclusive: 1000 nM [activator, single point]"
NC(=O)COC(=O)c1ccccc1SCC(=O)NC1CCCCCC1,inactive: -31.1%,–
COC(=O)c1ccc(-c2noc(CN3CCCC(CNC(C)=O)C3)n2)cc1 (centres undefined),–,"inconclusive: 1260 nM [activator, single point]"
CC(C)(C)C(=O)OCOC(=O)[C@@H]1N2C(=O)[C@@H](NC(=O)[C@H](N)c3ccccc3)[C@H]2SC1(C)C,–,"inconclusive: 50.1 nM [activator, full curve, poor fit]"
COc1ccc(NS(=O)(=O)c2cn(C)c(=O)n(C)c2=O)c(OC)c1,inactive: -4.58% [at 10 µM],–
Cc1cc(C(=O)COC(=O)c2ccc([N+](=O)[O-])o2)c(C)n1CC1CCCO1 (centres undefined),inactive: -47.7%,–
CCOC(=O)Cc1cc(-c2ccc(F)cc2)nc2ccc3ccccc3c12,inactive: -5.37% [at 10 µM],–
O=C1NCN(c2ccccc2)C12CCN(CCCC(c1ccc(F)cc1)c1ccc(F)cc1)CC2,–,"inconclusive: 50.1 nM [activator, full curve, poor fit]"
Cc1nn(C(C)C(=O)NCC2CCCO2)c(C)c1[N+](=O)[O-] (centres undefined),–,"inconclusive: 562 nM [activator, partial curve, poor fit]"
O=C(COc1ccc(Cl)cc1)N1CCN(C(=O)c2cccs2)CC1,–,"inconclusive: 1260 nM [activator, partial curve]"
CC1CCN(c2nc(CN3CCCCC3)nc3scc(-c4ccccc4)c23)CC1,–,"inconclusive: 6310 nM [activator, single point]"
Cc1cc(Cl)ccc1NC(=S)NCc1ccc(S(N)(=O)=O)cc1,–,"inconclusive: 5620 nM [activator, single point]"
CCCc1c(O)c2ccccc2n(-c2ccccc2)c1=O,–,"inconclusive: 5620 nM [activator, partial curve, poor fit]"
COc1ccccc1C1N(c2cc(Cl)ccc2OC)C(=O)C2CCCN21 (centres undefined),inactive: -3.43%,–
CC(C)(CSc1ncccn1)NS(=O)(=O)c1ccccc1,inactive: -0.0757%,–
COc1ccc(C2(C)NC(=O)N(CC(=O)Nc3ccc(-c4nc5ccc(C)cc5s4)cc3)C2=O)cc1 (centres undefined),–,"inconclusive: 6.3 nM [activator, full curve, poor fit]"
COc1ccc(NS(=O)(=O)c2cc(C)ccc2NC(=O)c2cc(C)oc2C)cc1,inactive: -70.7% [at 10 µM],–
COc1ccc2c(c1)O[C@@H](c1cccc(C(F)(F)F)c1)[C@H](OC(=O)NC1CCCC1)C2=O,–,"inconclusive: 20000 nM [activator, single point]"

# Three of the compounds above, as tab-separated lines.
Structure (SMILES)	cytoprotection (ATP increase)	Potency
COC(=O)c1ccc(-c2noc(CN3CCCC(CNC(C)=O)C3)n2)cc1 (centres undefined)	–	inconclusive: 1260 nM [activator, single point]
CC(C)(C)C(=O)OCOC(=O)[C@@H]1N2C(=O)[C@@H](NC(=O)[C@H](N)c3ccccc3)[C@H]2SC1(C)C	–	inconclusive: 50.1 nM [activator, full curve, poor fit]
COc1ccc(NS(=O)(=O)c2cn(C)c(=O)n(C)c2=O)c(OC)c1	inactive: -4.58% [at 10 µM]	–
